From patent publication US9463242B2, “Methods for treating prostate cancer” (UNIVERSITY OF ROCHESTER, priority 2011, dated 2016)
For at least one compound, name, drawing or mass did not settle the structure.

Tested on: LNCaP-S/P cells
Assay: Proliferation of S/P cells after siRNA transfection or inhibitor treatment
Assay type: cell-based, human
Conditions: FIG. 18H

O=c1cc(N2CCOCC2)oc2c(-c3ccccc3)cccc12 [LY294002]
proliferation of S/P cells: significantly inhibited
